# Reference: patent US8637550B2, “Heteroaryl diamide compounds useful as MMP-13 inhibitors” (Boehringer Ingelheim International GmbH, priority 2008, dated 2014)
# Biological target: MMP-13 (Homo sapiens, UniProt P45452)
# Assay: EnzoLyte 520 Generic MMP Assay Kit, 5-FAM/QXL520 FRET peptide substrate
# Assay type: biochemical
# Conditions: read-out: MMP-13 IC50
structure (smiles),measurement,value
CNC(=O)[C@@H](NC(=O)c1ccc(-c2cccc(CNC(=O)OCCOC)c2)o1)C1CCCCC1,IC50,397 nM

# Structures were worked out from names or drawings and are uncertain.
